For at least one compound, name, drawing or mass did not settle the structure.
Key:
GDM-1 (leukemia) = test: MTT tumor cell growth assay; type: cell-based; conditions: GDM-1 (FIG. 3J); 10 μM
Method: (§1) In one study, adherent cells were plated approximately 16-24 hours before the day of the experiment in 180 μl growth media. On the day of the experiment, the plated adherent cells were analyzed and counted and suspension cells were plated in 180 μl growth media. 10× lansoprazole compounds and vehicle was prepared. The 10× lansoprazole compounds were prepared by diluting lansoprazole to final concentrations of 100 μM, 30 μM, 10 μM, 3 μM, and 1 μM. A vehicle was prepared by preparing a solution of PBS, equivalent to the volume used for 10 μM lansoprazole wherein the 1× solution constitutes ˜0.06% PBS. 10 μl of the various 10× lansoprazole solutions and the vehicle were added to the cells. The cells were incubated at 37° C., 5% CO2 for 48 hours. The media was then aspirated. The cell suspension was then spun at 1500 RPM for 10 minutes. The media was slowly removed. 200 μl of MTT solution was added to each well with a concentration of 0.863 mg/ml MTT in the growth media. The cells were incubated at 37° C., 5% CO2 for 4 hours and the medium is then aspirated. The plate containing the cell suspension was then spun at 1500 RPM for 10 minutes. The media was slowly removed using a multichannel pipettor. 100 μl of DMSO was then added to each well. The cells were incubated at 37° C., 5% CO2 for 5 minutes and the absorbance was obtained at 560 nm using a Dynex Opsys MR plate reader. […]

MC/CAR (prostate cancer) = test: MTT tumor cell growth assay; type: cell-based; conditions: MC/CAR (FIG. 3K); concentration not stated for omeprazole (parenthesis in the 100 μM sentence)
Method: as §1

## COc1ccc2[nH]c([S+]([O-])Cc3ncc(C)c(OC)c3C)nc2c1 (centres unmarked) [omeprazole]
GDM-1 (leukemia)
  reducing tumor cell growth: effective in reducing tumor cell growth
MC/CAR (prostate cancer)
  reducing tumor cell growth: effective for reducing tumor cell growth

Source: patent US20100184807A1, “Methods to inhibit tumor cell growth by using proton pump inhibitors” (Bio-Quant, Inc., priority 2008, published 2010)
